From paper PMC1291403
Results are given in words; binding and its absence hold for the method and conditions named. Binding seen in cells or lysates may run through a third protein. Some binding calls cover weakened binding; strength is not graded here.

Chains of the proteins cited; added tags and fusions are not shown. Residues count along the entry.
UniProt P78536, residues 215-824: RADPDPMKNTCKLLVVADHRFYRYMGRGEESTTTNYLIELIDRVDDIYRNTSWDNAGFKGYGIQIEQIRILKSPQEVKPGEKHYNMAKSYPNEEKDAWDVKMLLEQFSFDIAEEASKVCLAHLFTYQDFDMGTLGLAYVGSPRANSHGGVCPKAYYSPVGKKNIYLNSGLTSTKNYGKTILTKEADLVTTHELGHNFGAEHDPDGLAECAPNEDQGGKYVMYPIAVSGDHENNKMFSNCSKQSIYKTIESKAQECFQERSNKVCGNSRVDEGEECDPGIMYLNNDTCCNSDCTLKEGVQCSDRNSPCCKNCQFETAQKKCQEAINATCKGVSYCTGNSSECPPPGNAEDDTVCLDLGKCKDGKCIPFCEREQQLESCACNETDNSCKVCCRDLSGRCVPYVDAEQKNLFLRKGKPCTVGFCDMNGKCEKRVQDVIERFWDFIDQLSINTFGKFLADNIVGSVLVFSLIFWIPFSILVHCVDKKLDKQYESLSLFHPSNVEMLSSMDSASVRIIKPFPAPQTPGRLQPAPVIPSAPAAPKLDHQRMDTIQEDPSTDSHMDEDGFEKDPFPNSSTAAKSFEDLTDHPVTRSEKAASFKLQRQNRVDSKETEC
UniProt P01375: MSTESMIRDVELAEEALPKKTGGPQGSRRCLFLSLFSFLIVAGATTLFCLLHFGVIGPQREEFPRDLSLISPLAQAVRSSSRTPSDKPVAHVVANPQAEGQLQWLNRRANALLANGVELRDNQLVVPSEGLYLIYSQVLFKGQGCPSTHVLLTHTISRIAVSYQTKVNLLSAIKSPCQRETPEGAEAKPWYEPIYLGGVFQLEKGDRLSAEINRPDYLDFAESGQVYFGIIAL

Biological target: TNF-α converting enzyme (TACE) (human (endogenous in A549)) (UniProt P78536)
Experiment: FRET or BRET; acceptor photobleaching FRET microscopy on formaldehyde-fixed transfected A549 cells; donor FITC-conjugated anti-TNF-α (Mab11), acceptor anti-TACE (M222) with Cy3-conjugated Fab; cells untreated or treated with 50 mM methanol, ethanol or 1-propanol for 60 minutes, or alcohol followed by a 1 hour washout

**Q.** Which binding does the source give for “FLAG-tagged human TNF-α (from UniProt P01375 1-233)” here?
**A.** binds
